Laboratory results taken from publication PMC3675359, “GxcC connects Rap and Rac signaling during Dictyostelium development” (BMC Cell Biology, 2013).
These are yes or no findings as the source states them, for the method shown. In cells and extracts the contact can be indirect. These calls come from enrichment with a bait or labelling near it, and not all partners need be listed.

The chains behind the UniProt entries cited, without tags or fusion partners.
UniProt P18613: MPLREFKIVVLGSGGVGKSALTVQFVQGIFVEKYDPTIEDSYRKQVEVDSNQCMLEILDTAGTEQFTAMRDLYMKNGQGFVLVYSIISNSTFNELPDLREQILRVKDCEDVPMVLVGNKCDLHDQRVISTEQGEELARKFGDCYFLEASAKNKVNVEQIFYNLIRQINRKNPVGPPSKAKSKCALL

Target: GST-RapA fusion protein preloaded with GppNHp (Dictyostelium discoideum) (UniProt P18613)
Assay: affinity purification with mass spectrometry; 3-5 mg purified GST-RapA preloaded with GppNHp prebound to a GSH column; lysate of vegetative Dictyostelium cells circulated overnight; eluted with glutathione; LC-MS/MS; only the target purified

binding: binds
B1: GxcC (Guanine eXchange factor for raC) (protein, UniProt Q54P24 1-1215)
chain: MPIQFDAGLEQQVNQFLGDVDDFLTVKTGTTVDKLKSLLNCEEKSISYNAIAFLAFANQAAVNKDASREAGLIKLFLEFCHPSKIITVLPMVKHASMGLMFLANHSDENKKEIGDLKGIDTIFELLRDLLVMIKSPPEDVKKEDIVSSISQSLNLVIFLASLQSNREVMGTVQNFLVLNSLLAYENPQSLDLQLQIQEKALSATNNICMHKENKENCRVAGCIENVLKLLKSTKPSIQDSSLRMLYNMTITDANREAIRRCKGLETLASMLSGQAEALTLLSLKALSNMAVDRQTIEYAVANQESVLQPIYGVFPSSYGQGCSDALLDQVLTVIQNLVSEENLIDTVAKSGIIAKLVGATKGMPLTNTTHQSILVKASCIISALITIEEVQQAAVEQGVITLLVEMIQLPSAEVRREAARALANATPYYDDVRAEIGAQGGVKLCVDLLLQADKELVKQAARALVNLARNTHNEEKLYESKGLEHSIRLINSPEKDLKMLGTKLLVNLSLNEQARIAFCQKGGLSIVVQLLTSSDPELQLQGTKIATNLAISGRNRKVMNEQAPDLIPALKALVNSSVSDIKLQSEVSLNNLAFPYEASYEGLDQMEDAMPIFMQSSQYERDDDDEDDEDEAEKDERRRQEEEELRLAAEKEVEERKRIMQEEVKRIEERRKAEHEKRLQEEQELRQKKEEAEKLRLAQEAMEKLRLEQEAAAAAEAEKIRLAEEQRIIKEKEVAEQERIKQLTEQQKQKEEEEAKIALEKAKKEEAERLEKAEALRLQKEQEERIRKEKEIEAERLRVQEEERLAKERQAEEDRMRAVEEEKLKLMEAEIKQREEDIRRQKIEEEERRKREEQEKKLKDQQDKASQESARLAQEAARAQKRTHIVQEIMQVEVNYVKNLTLMVRKFLHPLAQLSTSKRPLLTPDRITQIFSTIENIQNHNSIFSDGLTSRIKRWLADNKKDHLIIGDIFQKIGGFMQDYSKYINNYNQSIKTYNETKKTNLPFAQFIKKVESDPELNDRELENLLITPVQQLPRYIMLIQDLIRNTHDDHPDYKPLTEALDKIKHITTIINEKKRDAEDAFAMLQIHQQVHGKVPNNFVTPHRKFIREGAVHFGSSSGSFKDKDPIVFLFNDMVMMTIKHPNKPNEYKYRYSCQFSTTTTIEELPSVNNGFIIKSNQWWSFSCSTPQEKTSWMETIQKSLTNLPKESKVLTSKK
